This note sets out measurements from PMC3531493, “Inhibition of a NEDD8 Cascade Restores Restriction of HIV by APOBEC3G” (PLoS Pathogens, 2012).

Sequences of proteins named here, by UniProt entry; tags and fusion partners are left off. Residues count along the entry.
UniProt Q9UBF6, residues 44-113: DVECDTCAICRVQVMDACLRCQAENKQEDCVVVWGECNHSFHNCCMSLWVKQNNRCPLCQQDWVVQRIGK
UniProt P61081: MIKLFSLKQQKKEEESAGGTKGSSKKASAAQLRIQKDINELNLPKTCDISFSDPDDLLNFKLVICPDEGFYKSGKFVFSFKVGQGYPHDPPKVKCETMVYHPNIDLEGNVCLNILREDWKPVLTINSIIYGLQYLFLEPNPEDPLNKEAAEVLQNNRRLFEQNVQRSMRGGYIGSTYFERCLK

These are yes or no findings as the source states them, for the method shown.

The target in this assay is RBX2 RING domain (44-113) (UniProt Q9UBF6). The assay can be described thus: NMR titration; 15N-HSQC of 50 µM 15N-labelled RBX2 RING with unlabelled E2 added (∼100 µM in Fig. 3D; increasing concentrations in Fig. 5D); 20°C; 100 mM NaCl, 1 mM DTT, 25 mM HEPES pH 7.5; both purified.

Turning to “UBE2M, full-length (from UniProt P61081 1-183) (enzyme)”, the binding result is listed as “no binding (tested: ∼100 µM)”.
